For at least one entry, the source does not settle the construct or the ends of the probe.
The sequences below were run on SsNST1 (His-SsNST1) (Saccharum spontaneum) (assay: EMSA). Conditions: EMSA as in Gao et al., 2019; pH and temperature not stated; recombinant protein; protein details: His; label: 5' 6-FAM.

Binding result, binds:
CAGAAATGTTTTCTGGAAAAGAAAGTAGTCAGAAATGTTTTCTGGAAAAGAAAGTAGT (double strand) [SsCESA9-SNBE probe]
TCGTGTGACGGTCAAGTCATCGTGTGACGGTCAAGTCATCGTGTGACGGTCAAGTCA (double strand) [SsCESA7-SNBE probe]
TCTCTGTTTTAAACTATAAGTCATTCTATCTCTGTTTTAAACTATAAGTCATTCTA (double strand) [SsCESA4-SNBE probe]

Reference: publication PMC12722970
